Assay results as given in publication doi:10.1101/2021.10.29.466550.

System: ComFA
Assay: EMSA

| Sequence | binding result (5 nM DNA, the 138 nM Kd is quoted from earlier work) | binding result (5 mM ADP, reverses the weakening by 5 uM ADP) |
| --- | --- | --- |
| CCGACCCACCATGCGTTTGTAACCCGACCCACCGTTCGTTCCTACCCACC [50MB ssDNA] | binds |  |
| TTTTTTTTTTTTTTTTTTTTTTTTTTTTTTTTTTTTTTTTTTTTTTTTTT [50T] |  | binds |

Construct, isoform or probe ends are uncertain for at least one entry. At least one verdict was read from the data and is not stated in words by the source.
